Results as given in PubChem BioAssay AID330 (DTP/NCI, 2004).
The list does not hold the whole screen: it gathers tests that were run many times, whatever their T/C, doses with no T/C, and many T/C values between a quarter and a half above the control. Other doses and runs of a compound stand elsewhere. T/C is the treated group as % of the vehicle group. Some doses have a count of surviving animals in place of a T/C: the source files T/C as zero there, which appears to mark a toxic dose or a test without result, not a measured value. Some survivor counts are full or nearly so, which does not show that the dose was tolerated: the source hardly ever lists a survival T/C far under the control, and the zero likely stands for such cases as well. Survivors were counted at the toxicity check, usually on the fifth day, unless a day is given; later deaths do not show. Schedule codes are those of the source, taken here to give the interval after Q, in days (D) or hours (H), and the number of doses after X. Where survival is the endpoint, the PubChem record calls one and a half times the control and up active, and a quarter to a half above the control has no call in these data; cut-offs in other NCI protocols can differ. Some T/C values carry the count of animals alive at the toxicity check (mostly the fifth day); without a count, all were alive then.

Test system: P388 leukemia ip, CD2F1 mice, survival T/C
Assay: NCI In Vivo Anticancer Drug Screen. Data for tumor model P388 Leukemia (intraperitoneal) in CD2F1 (CDF1) mice
Conditions: T/C endpoint: median survival time, higher T/C = longer survival

With CCC12C=CCN3CC[C@@]4(c5cc([C@@]6(C(=O)OC)C[C@@H]7CN(CCc8c6[nH]c6ccccc86)C[C@](O)(CC)C7)c(OC)cc5N(C)[C@H]4[C@@](O)(C(=O)NCCCCCCCCCCCC(=O)O)[C@@H]1O)C32 (stereo not given in full) the survivor count (dose: 22.5 mg/kg/injection, schedule: Q01DX001 (ip), vehicle: other) was 2 of 6, the survivor count (dose: 22.5 mg/kg/injection, schedule: Q01DX001 (ip), vehicle: saline) was 2 of 6 and the survivor count (dose: 45.0 mg/kg/injection, schedule: Q01DX001 (ip), vehicle: other) was 0 of 6. The survivor count (dose: 45.0 mg/kg/injection, schedule: Q01DX001 (ip), vehicle: saline) was 2 of 6, the survivor count (dose: 90.0 mg/kg/injection, schedule: Q01DX001 (ip), vehicle: other) was 0 of 6 and the survivor count (dose: 90.0 mg/kg/injection, schedule: Q01DX001 (ip), vehicle: saline with Tween-80) was 2 of 6. The survivor count (dose: 90.0 mg/kg/injection, schedule: Q01DX001 (ip), vehicle: saline) was 0 of 6.
For NCC1CC2c3ccccc3C1c1ccccc12 (stereo not given), the survivor count (dose: 200.0 mg/kg/injection, schedule: Q01DX005 (ip), vehicle: Klucel (hydroxypropylcellulose) (HPC)) was 0 of 5.
For CC(C)(C)C(=O)Oc1cc2c(cc1OC(=O)C(C)(C)C)C(c1ccccc1)CNCC2 (stereo not given), the survivor count (dose: 100.0 mg/kg/injection, schedule: Q01DX009 (ip), vehicle: saline with Tween-80) was 3 of 6.
With O=C(Nc1ccc(Cl)cc1)Nc1nccs1 the survivor count (dose: 200.0 mg/kg/injection, schedule: Q01DX009 (ip), vehicle: distilled water + Tween-80) was 2 of 6.
With CCCCSC1=CC(=O)c2c(O)ccc(O)c2C1=O the survivor count (dose: 100.0 mg/kg/injection, schedule: Q04DX002 (ip), vehicle: DMSO) was 0 of 6, the survivor count (dose: 200.0 mg/kg/injection, schedule: Q04DX002 (ip), vehicle: DMSO) was 0 of 6 and the survivor count (dose: 400.0 mg/kg/injection, schedule: Q04DX002 (ip), vehicle: DMSO) was 0 of 5.
With CCCCCc1nc(N)nc(-c2nc(N)nc(CCCCC)c2C)c1C the survivor count (dose: 240.0 mg/kg/injection, schedule: Q01DX005 (ip), vehicle: saline) was 3 of 6.
With O=C(NC1CCCCC1(O)c1ccc([N+](=O)[O-])cc1)C(Cl)Cl (stereo not given) the survivor count (dose: 400.0 mg/kg/injection, schedule: Q04DX002 (ip), vehicle: Klucel (hydroxypropylcellulose) (HPC)) was 6 of 6.
In the case of NC(N)=N/N=C1\C/C(=N\N=C(N)N)c2ccccc21, the survivor count (dose: 100.0 mg/kg/injection, schedule: Q01DX001 (ip), vehicle: saline with Tween-80) is reported as 0 of 6.
For CC1/C(=N\N=C(N)N)c2ccccc2/C1=N/N=C(N)N (stereo not given), the survivor count (dose: 200.0 mg/kg/injection, schedule: Q01DX001 (ip), vehicle: saline with Tween-80) was 0 of 6 and the survivor count (dose: 400.0 mg/kg/injection, schedule: Q01DX001 (ip), vehicle: saline with Tween-80) was 0 of 6.
In the case of [CH3][Sn]([CH3])([CH3])[O][N+](=O)[O-], the survivor count (dose: 1.5 mg/kg/injection, schedule: Q01DX009 (ip), vehicle: saline) is reported as 5 of 6 and the survivor count (dose: 3.0 mg/kg/injection, schedule: Q01DX009 (ip), vehicle: saline) is reported as 0 of 6.
For COc1ccc(Br)cc1C(Nc1nncs1)Nc1nncs1, the survivor count (dose: 120.0 mg/kg/injection, schedule: Q01DX005 (ip), vehicle: saline with Tween-80) was 6 of 6.
With COc1cc(OC)c(NC(=O)C2=C(C)NC(C)=C(C(=O)Nc3cc(Cl)c(OC)cc3OC)C2c2cccc([N+](=O)[O-])c2)cc1Cl the survivor count (dose: 120.0 mg/kg/injection, schedule: Q01DX005 (ip), vehicle: Klucel (hydroxypropylcellulose) (HPC)) was 6 of 6 and the survivor count (dose: 240.0 mg/kg/injection, schedule: Q01DX005 (ip), vehicle: Klucel (hydroxypropylcellulose) (HPC)) was 6 of 6.
With O=C(Nc1ccccc1)Sc1ccc(Cl)cc1 the survivor count (dose: 200.0 mg/kg/injection, schedule: Q01DX005 (ip), vehicle: saline with Tween-80) was 5 of 6.
With COc1ccc(C2=NOP(c3ccccc3)(c3ccccc3)(c3ccccc3)C2)cc1 the survivor count (dose: 50.0 mg/kg/injection, schedule: Q01DX009 (ip), vehicle: other) was 0 of 6, the survivor count (dose: 100.0 mg/kg/injection, schedule: Q01DX009 (ip), vehicle: other) was 0 of 6 and the survivor count (dose: 200.0 mg/kg/injection, schedule: Q01DX009 (ip), vehicle: other) was 0 of 6. For the same molecule, the survivor count (dose: 400.0 mg/kg/injection, schedule: Q01DX009 (ip), vehicle: other) was 0 of 6.
For Cc1c2ccncc2c(C)c2c1[nH]c1ccc(F)cc12, the T/C (dose: 65.0 mg/kg/injection, schedule: Q04DX002 (ip), vehicle: Klucel (hydroxypropylcellulose) (HPC)) was 129 % of control [5 of 6 alive] and the T/C (dose: 130.0 mg/kg/injection, schedule: Q04DX002 (ip), vehicle: Klucel (hydroxypropylcellulose) (HPC)) was 138 % of control.
